These are yes or no findings as the source states them, for the method shown. Some binding calls cover weakened binding; strength is not graded here.
Legend:
[1] = target: T1, soluble CD23 (sCD23) purified from the supernatant of human RPMI 8866 cells (human) (UniProt P06734); assay: ELISA on sCD23 captured by BG-6
T1 sequence (looked up): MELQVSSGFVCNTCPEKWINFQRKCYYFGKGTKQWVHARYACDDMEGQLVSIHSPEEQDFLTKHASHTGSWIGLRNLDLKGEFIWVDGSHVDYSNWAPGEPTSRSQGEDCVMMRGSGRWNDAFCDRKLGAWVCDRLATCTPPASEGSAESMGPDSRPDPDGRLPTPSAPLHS

[2] = target: T2, human CD23, the low affinity receptor for IgE (FceRII/CD23) (human) (UniProt P06734); assay: competition binding assay (FIG. 2)
T2 sequence (looked up): T1 sequence (looked up)

B1: primate monoclonal anti-human CD23 antibody 6G5 (antibody, V domains shown)
VH: QLQLQESGPGVVKPSETLSLTCAVSGGSVSSSNWWTWIRQPPGKGLEWIGRISGSGGATNYNPSLKSRVIISQDTSKNQFSLNLNSVTAADTAVYYCARDWAQIAGTTLGFWGQGVLVTVSS
VL: QSAPTQPPSVSGSPGQSVTISCTGTSDDVGGYNYVSWYQHHPGKAPKLMIYDVAKRASGVSDRFSGSKSGNTASLTISGLQAEDEADYYCCSYTTSSTLLFGRGTRLTVL
**Q.** For B1, which binding [1] is on record?
**A.** The binding was “binds”.

**Q.** What about the binding [2] of the same binder?
**A.** The binding was “binds”.

Reference: patent US7223392
